Results are given in words; binding and its absence hold for the method and conditions named. In cells and extracts the contact can be indirect. For some of these results: Binding calls can cover weak binding; strength is not graded here.

Chains of the proteins cited; added tags and fusions are not shown. Lines headed by an entry give the natural chain unless they say otherwise; changes in a name come on top.
UniProt Q9SSX0: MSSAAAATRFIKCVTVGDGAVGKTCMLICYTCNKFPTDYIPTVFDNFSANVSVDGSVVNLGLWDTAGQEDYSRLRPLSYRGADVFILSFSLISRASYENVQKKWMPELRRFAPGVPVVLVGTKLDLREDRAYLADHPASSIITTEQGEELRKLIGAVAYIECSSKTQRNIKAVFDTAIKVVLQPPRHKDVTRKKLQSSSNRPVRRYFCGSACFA
UniProt Q13153: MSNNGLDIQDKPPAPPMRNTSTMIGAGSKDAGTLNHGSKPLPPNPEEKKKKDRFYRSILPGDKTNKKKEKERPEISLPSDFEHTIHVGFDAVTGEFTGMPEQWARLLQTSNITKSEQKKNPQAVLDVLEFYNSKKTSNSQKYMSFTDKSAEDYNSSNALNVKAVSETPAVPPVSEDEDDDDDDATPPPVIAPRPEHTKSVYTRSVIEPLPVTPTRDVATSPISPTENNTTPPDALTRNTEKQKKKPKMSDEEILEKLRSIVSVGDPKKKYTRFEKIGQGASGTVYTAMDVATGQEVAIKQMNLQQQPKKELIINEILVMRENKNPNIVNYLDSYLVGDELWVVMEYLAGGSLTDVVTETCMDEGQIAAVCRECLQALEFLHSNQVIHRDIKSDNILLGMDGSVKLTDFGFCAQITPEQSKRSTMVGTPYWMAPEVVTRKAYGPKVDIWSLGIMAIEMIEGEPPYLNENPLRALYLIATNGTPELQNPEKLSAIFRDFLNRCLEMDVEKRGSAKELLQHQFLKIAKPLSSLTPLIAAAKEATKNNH

For test [1], the target named is constitutively active (G19V) form of OsRac1 (rice) (UniProt Q9SSX0). Put plainly: pull-down; pull-down of PAK CRIB with OsRac1 CA and DN; no details told here (ref. 13).
Test [2] concerns the target dominant negative (T24N) form of OsRac1 (rice) (UniProt Q9SSX0). The test is described as above.
The target in test [3] is OsRac1 constitutively active (G19V) as it stands in Raichu-CA-OsRac1 (rice) (UniProt Q9SSX0). Put plainly: FRET or BRET; intramolecular FRET sensor Raichu-OsRac1 (Venus, PAK CRIB, OsRac1, CFP on one chain) in living rice protoplasts, 10-16 h after transfection; CFP excited at 440 nm, Venus/CFP emission ratio.
Test [4] concerns the target OsRac1 dominant negative (T24N) as it stands in Raichu-DN-OsRac1 (rice) (UniProt Q9SSX0). The test is described as above.

Regarding “CRIB domain of PAK (Cdc42/Rac interactive binding domain of the Rac-effector PAK1) (from UniProt Q13153) (domain or fragment)”, the values for the binding result in test [1] and in test [2] were “binds” and “no binding”, respectively.
With “CRIB domain of PAK as it stands in the Raichu-OsRac1 FRET sensor (from UniProt Q13153) (domain or fragment)”, the binding result is listed as “binds” in test [3] and “no binding” in test [4].

Values taken from paper PMC6035793.
